Measurements published in patent publication US20050090428A1, “Porphyrins with virucidal activity” (priority 2002, published 2005).
Some results were stated once for a whole list of compounds, not compound by compound. For part of these data: At least one compound was matched to its structure with a doubt left.

Legend:
[1] = test system: HIV-1 IIIB; assay: Filtration-dilution removal of unbound porphyrin, then MAGI assay; format: cell-based; details: after removal of free compound, four filtration-dilutions
[2] = test system: HIV-1 IIIB; assay: Screening for virucidal activity against HIV-1 IIIB, MAGI cell assay; details: 50 μg/ml, 1 hr in the dark, diluted 10-fold, MAGI cells, without removal of free compound

Row | Compound | inactivation of virus after filtration-dilution [1] | inhibition of HIV-1 IIIB (percent virus inactivated), screening assay [2]
1 | sulfonated 5,10,15,20-tetra-naphthalen-1-yl-porphyrin [TNapPS] | 90-99% | 90-99%
2 | Cc1cc(C)c(S(=O)(=O)O)c(C)c1-c1c2nc(c(-c3c(C)cc(C)c(S(=O)(=O)O)c3C)c3ccc([n-]3)c(-c3c(C)cc(C)c(S(=O)(=O)O)c3C)c3nc(c(-c4c(C)cc(C)c(S(=O)(=O)O)c4C)c4ccc1[n-]4)C=C3)C=C2.[Co+2] [TMPS,Co] | 20-40% | –
